Results as given in PubChem BioAssay AID652054 (National Center for Advancing Translational Sciences (NCATS), 2013).
“And” between values parts separate entries of the source, which are not always exact repeats. Identical values can stand only once. About 9,100 (2.5%) of roughly 360,000 compounds were called active. Inconclusive means that the source gave no clear call. Such entries were picked first, then a sample of the others. Cut-off read from the data, not from the text of the source: active = max response below about -50%; inconclusive = no clear call, values can overlap the other calls; inactive = above that.

Amino acid sequences for entries named in this document (tags omitted).
UniProt P35462, whole entry, looked up: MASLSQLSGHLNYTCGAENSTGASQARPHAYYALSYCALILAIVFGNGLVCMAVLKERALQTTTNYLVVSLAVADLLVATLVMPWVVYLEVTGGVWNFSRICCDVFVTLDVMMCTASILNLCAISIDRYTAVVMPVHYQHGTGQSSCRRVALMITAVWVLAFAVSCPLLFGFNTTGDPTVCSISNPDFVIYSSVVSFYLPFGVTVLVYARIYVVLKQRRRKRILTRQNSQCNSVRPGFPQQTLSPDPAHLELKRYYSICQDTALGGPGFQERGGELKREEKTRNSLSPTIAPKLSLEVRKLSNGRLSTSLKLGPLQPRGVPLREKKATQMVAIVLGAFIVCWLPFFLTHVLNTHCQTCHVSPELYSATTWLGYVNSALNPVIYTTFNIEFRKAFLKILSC

Target: D(3) dopamine receptor (Homo sapiens) (UniProt P35462)
Test: qHTS of D3 Dopamine Receptor Antagonist: qHTS
Settings: D3R cells, DiscoveRx beta-arrestin luminescence, antagonist mode; stronger effect = lower value
In short: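 Cells expressing the human receptor were seeded at 1500 cells/well, incubated overnight at 37 degrees C in 5% CO2, then exposed to library compounds with dopamine controls for 90 minutes at 37 degrees C before luminescent detection.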
% is set by controls: 0 for no effect and ±100 for the full control effect.

Max response, negative = inhibition, active:
CCN1C(=O)C(=Cc2cccc(OC)c2Oc2ccc([N+](=O)[O-])cc2[N+](=O)[O-])SC1=S -70.3%
COc1ccc(NS(=O)(=O)c2ccc3oc(Nc4ccc5c(c4)OCCO5)nc3c2)cc1 -56.3%
Cc1c(Cl)c(-c2n[nH]c(=S)n2-c2ccc(F)cc2)nn1C -65.9%
COc1ccc(C(CNC(=O)C(C)Oc2ccc(Br)cc2)N2CCCC2)cc1 (centres undefined) -81.2%

Max response, negative = inhibition, inconclusive:
Cc1cc(C)c(S(=O)(=O)Nc2ccc(O)c(Sc3ncn[nH]3)c2)cc1C -32.9%
COc1ccc2cc(-c3[nH]ncc3CN3C[C@@H]4CCC[C@H]3C4)ccc2c1 -34.1%
CCNC(=S)N=Nc1c(O)[nH]c2ccc([N+](=O)[O-])cc12 -39.4%
O=C(c1ccccc1)[C@@H]1[C@@H]2C(=O)N(c3ccc(F)cc3)C(=O)[C@@H]2C2CCCN21 (some centres undefined) -32.3%
C=CCSc1nc(=O)n2cccc(C)c2n1 -32.5%
Cc1nn2c(NCc3ccccn3)cc(C(C)(C)C)nc2c1-c1ccccc1 -48%
Cc1[nH]c2ccccc2c1CCN(Cc1cccs1)C(=S)Nc1ccccc1 -36.9%
O=C(Cn1nnc2ccccc21)Nc1ccccc1[N+](=O)[O-] -38.9%
COC(=O)CCc1sc(NC2CCCCC2)nc1-c1ccc(OC)cc1 -37.9%
CCOC(=O)c1c(NC(=S)Nc2ccccc2)sc(C)c1C -35.4%
S=c1[nH]nc(-c2ccc(Cl)cc2Cl)n1Cc1ccccc1 -36.8%
COc1ccccc1CNC(=O)COC(=O)Cc1ccc(Br)cc1 -30.5%
CCc1nnc(NC(=O)C2Cc3ccccc3CN2S(=O)(=O)c2cccs2)s1 (centres undefined) -36.3%
O=C(O)CSc1nnc(-c2ccc(Cl)cc2Cl)n1-c1ccc(Cl)cc1 -33%
Cc1ccc2nc(-c3ccco3)c(Cc3ccccc3)n2c1 -46.7%
CCn1c2ccccc2c2nnc(SCC(=O)Nc3ncccn3)nc21 -43.3%
Cc1cc(/C=C(\C#N)C(=O)NCc2ccco2)c(C)n1C1CCCC1 -31.2%
CCCCn1c(CCNC(=O)CCC)nc2ccccc21 -31.8%
O=C1c2cccc3c([N+](=O)[O-])ccc(c23)C(=O)N1c1ccc(Cl)cn1 -48.8%
NNC(=O)c1ccc([N+](=O)[O-])c(CS(=O)(=O)c2ccc(Cl)cc2)c1 -40%
COc1ccc(CCn2nnnc2C(c2ccc(C)cc2)N2CCN(C)CC2)cc1OC (centres undefined) -47.7%
Cc1nc(C(=O)N2CCCC(N3CCN(c4ccc(F)cc4)CC3)C2)cs1 (centres undefined) -31.9%
O=C(Nc1ccc2c(c1)OCCO2)C1CCN(S(=O)(=O)Cc2ccccc2)CC1 -35.8%
CC1(C)Oc2cc(N)c([N+](=O)[O-])cc2O1 -49.1%
COc1cccc(-n2nnc3c(=O)n(CC(=O)N4CCC(Cc5ccccc5)CC4)cnc32)c1 -46.9%
Cc1ccc(SCc2c(C(=O)N/N=C/C3CC=CCC3)nnn2-c2nonc2N)cc1 (centres undefined) -32%
COc1ccc(C(=O)N2CCCC(c3cc(C(=O)NCc4ccc(F)cc4)no3)C2)cc1 (centres undefined) -30.3%
Nc1nc(N)nc(-c2cc(Cl)ccc2Cl)n1 -33.4%
CCN(c1ccccc1)S(=O)(=O)c1ccc(C(=O)NC2CCN(Cc3ccccc3)CC2)cc1 -41%

Max response, negative = inhibition, -41% (inconclusive) and -83.8% (active):
Cc1ccc(CN2C(=O)C(Cc3ccccc3)Nc3ncnc(N4CCCCC4)c32)cc1 (centres undefined)

Max response, negative = inhibition, inactive:
O=C(CCCN1C(=O)/C(=C/c2ccc(F)cc2)SC1=S)NC1CCS(=O)(=O)C1 (centres undefined) 8.82%
O=C(CN1C(=O)COc2ccccc21)NCc1ccc(C(=O)O)cc1 -12.6%
c1ccc(-c2nc3cc4ccccc4cc3[nH]2)nc1 8.81%
CN=c1scc(-c2ccc(Br)cc2)n1C 0%
COc1ccc(S(=O)(=O)N(C)C[C@H]2Oc3c(NC(=O)C4CCCCC4)cccc3C(=O)N([C@H](C)CO)C[C@@H]2C)cc1 -18.2%
O=C(NC(=S)NN1CCCCC1c1cccnc1)c1ccc(Cl)cc1Cl (centres undefined) 2.19%
COc1ccc(S(=O)(=O)N2CCOC2CNC(=O)C(=O)NCCCc2ccccc2)cc1 (centres undefined) 30.7%
CN(C)CC1CCC/C(=C\c2ccc(OC(=O)/C=C/c3ccccc3)cc2)C1=O (centres undefined) -12.8%
CCCCn1c(N)c(N(CC(C)C)C(=O)C2CCN(S(=O)(=O)c3ccc(C)cc3C)CC2)c(=O)[nH]c1=O -2.56%
O=C(NCCN1CCOCC1)c1ccccc1OCc1ccccc1 7.3%
COCCNC(=O)C(c1cccs1)N(Cc1cccs1)C(=O)Cn1nnc2ccccc21 (centres undefined) 19.6%
N#CC1(NC(=O)CSc2n[nH]c(-c3ccccc3)n2)CCCCC1 -0.0035%
Cc1ccc(NC(=S)N2CCC(c3ccccc3)C2)c(Cl)c1 (centres undefined) 1.4%
CCOC(=O)c1c(C)nc2c(c1-c1cc(OC)ccc1OC)C(=O)c1ccccc1-2 7.85%
Cc1ccc(NS(=O)(=O)c2cccc(C(=O)NNC(=O)c3ccco3)c2)c(C)c1 -18.8%
C=CCN(c1ccccc1)S(=O)(=O)c1cccc(C(=O)Nc2nnc(SCC)s2)c1 105%
C/C(N)=N\S(=O)(=O)c1ccc(Cl)cc1 4.48%
Cc1cc(C)c2c(N)c(C(=O)Nc3ncc(C)s3)sc2n1 15.3%
Cc1ccc(NS(=O)(=O)c2ccc(CCC(=O)O)cc2)cc1 21.4%
COc1cc(/C=C2\C(=N)N3N=CSC3=NC2=O)cc(Br)c1OC(=O)c1ccco1 7.04%
